Laboratory results from patent US5496703A, “Indirect immunoassay for dioxinlike compounds” (priority 1993, dated 1996).

Experiments:
[1] = test system: protein tyrosylphosphorylation of hepatic S-9 proteins; experiment: Immunoblot / densitometry of hepatic S-9 phosphotyrosyl proteins, mice dosed i.p.; assay type: in vivo, C57BL/6 mice
Description: Female, C57BL/6 mice (or any cytochrome P-450IA1 inducible strain) were obtained from Harton Sprague Dawley (Indianapolis, Ind.). Experiments were performed using four to six week old, female mice weighing approximately 16 to 20 g. Mice were fed Prolab RMH 1000 rat, mouse and hamster food (Agway, Cortland, N.Y.) and received tap water ad libitum. All mice were housed three to five per cage and maintained on a photoperiod of 12 hours. Mice were killed 24 hours following an intraperitoneal injection of either corn oil alone or TCDD (Analabs) at 0.25, 0.5, 1, 2, 4, 10, 50 μg/kg, the volume of the injections ranged from 0.1 to 0.2 ml per mouse. Hepatic S-9 fractions were prepared by homogenizing the liver in 3 times the volume of 0.15M KCl. Following a 9000×g centrifugation for 20 minutes, the supernatant (S-9) fraction was carefully removed and quickly frozen for storage at -80° C.
The separation of S-9 proteins by means of SDS PAGE was performed by mixing the S-9 1:1 with a double strength sodium dodecyl sulfate sample buffer and heating the solution at 100° C. for 3 minutes prior to one-dimensional SDS polyacrylamide gel electrophoresis with 10% polyacrylamide. […] Complete transfers were accomplished in 25-30 minutes at 500 mA and were assessed by tracking pre-stained molecular weight standards onto the membrane filter. […]

[2] = test system: protein tyrosylphosphorylation in X3 human lymphoblastoma cells; experiment: Immunoblot / densitometry of X3 cell lysate phosphotyrosyl proteins; assay type: cell-based
Description: The indicated densitometric measurements were made on a BioImage AK Kodak Visage 110.
The X3 human lymphoblastoma cells (Genetest, Wolburn, Mass.) were grown in 75 cm^2 T-flasks in RPMI 1640 medium (Gibco) containing 9% horse serum. Any cell or cell line expressing cytochrome P-450IA1 may be used. The cells were cultured at 37° C. in a 5% CO2 (balance air) environment. Cells were subcultured by centrifuging (1000 rpm, 3 minutes) and resuspended in fresh media to a volume of 50 mL (at a cell density of 1.0×10^6 cells/mL). The TCDD-corn oil solution was homogenized with serum to a final concentration of 0.10 μg/mL. The TCDD-serum was added at concentrations of 0, 0.02, 0.05, 0.1, 0.5 and 1.0 nM per flask and incubated for 16 hours. After the appropriate incubation time, the cells were harvested by centrifugation and washed three times (PBS, […]). A final cell count was then determined.
The separation of cell lysate proteins by means of SDS PAGE was performed by mixing the cell lysate 1:1 with a double strength sodium dodecyl sulfate sample buffer and heating the solution at 100° C. for 3 minutes prior to one-dimensional SDS polyacrylamide gel electrophoresis with 10% polyacrylamide. After electrophoresis, a Milliblot SDE electroblot apparatus (Millipore, Bedford, Mass.) was used to transfer the proteins from the polyacrylamide gels to an Immobilon™ membrane filter (Millipore). Complete transfers were accomplished in 25-30 min at 500 mA and were assessed by tracking pre-stained molecular weight standards onto the membrane filter. Membrane filters were blocked by incubating in TBS (Tris buffered saline) containing 5% milk for 30 minutes at 37° C. The membranes were then washed in TBST (TBS with 0.05% Tween 20) and incubated overnight with antiphoshphotyrosine monoclonal antibody (1.5 μg/mL) in TBST. The primary antibody was removed, and the membranes were washed four times in TBST. […]

SMILES: Clc1cc2c(cc1Cl)Oc1cc(Cl)c(Cl)cc1O2 [TCDD, 2,3,7,8-tetrachlorodibenzo-p-dioxin]
- amount of dioxin equivalents required to initiate tyrosylphosphorylation of 37 kDalton protein ([1]; assuming a 20 g mouse): 5 ng
- limit of detection, dioxin equivalents in sample ([1]; extract of a 10 g sample, 37 kDalton protein): 400 parts per trillion
- amount of dioxin equivalents required to initiate tyrosylphosphorylation of 57 kDalton protein ([2]; assuming a 100 μL incubation well): approximately 37.5 pg
- limit of detection, dioxin equivalents in sample (57 kDalton protein) ([2]; extract of a 2 g sample): 20 parts per trillion
- limit of detection based on 33 kDalton protein ([2]; response at the EC50 of 0.04 nM): approximately 4 ppt
